Laboratory results as given in US20200216449A1, “4-Sulfur Substituted Podophyllotoxin Derivative and Preparation Method Therefor and Use Thereof” (priority 2017, published 2020).
Some entries share one result that the patent states for a list of compounds.

Tests used:
HeLa = assay: MTT test for inhibition of tumor cells, HeLa; type: cell-based; conditions: vs podophyllotoxin, 4′-demethylepipodophyllotoxin (b247 also etoposide)
HepG2 = assay: MTT test for inhibition of tumor cells, HepG2; type: cell-based; conditions: vs podophyllotoxin, 4′-demethylepipodophyllotoxin (b247 also etoposide)
HL-7702 = assay: MTT test on human normal hepatocytes HL-7702; conditions: vs podophyllotoxin; for antitumor activity on HL-7702 compared with controls: 4′-demethylepipodophyllotoxin (b247 also etoposide); for toxicity on HL-7702 cell line compared with controls: 4′-demethylepipodophyllotoxin and etoposide

Compound	antitumor activity on HeLa compared with controls (HeLa)	antitumor activity on HepG2 compared with controls (HepG2)	antitumor activity on HL-7702 compared with controls (HL-7702)	toxicity on HL-7702 cell line compared with controls (HL-7702)
COc1cc(C2c3cc4c(cc3C(Sc3nccc(C(F)(F)F)n3)C3COC(=O)C23)OCO4)cc(OC)c1OC (stereo not drawn) [Compound 3, 4-β-S-(4-trifluoromethylpyrimidin-2)-podophyllotoxin]	obviously improved	obviously improved	obviously improved	–
COc1cc([C@@H]2c3cc4c(cc3[C@@H](Sc3nc(-c5ccncc5)cs3)[C@H]3COC(=O)[C@H]23)OCO4)cc(OC)c1OC [Compound 27, 4β-S-(4-(4-pyridyl)thiazol-2)-podophyllotoxin]	obviously improved	obviously improved	obviously improved	–
COc1cc([C@@H]2c3cc4c(cc3[C@@H](Sc3nc5cc(F)ccc5s3)[C@H]3COC(=O)[C@H]23)OCO4)cc(OC)c1O [Compound 8, 4β-S-(5-fluorobenzothiazol-2)-4′-demethylepipodophyllotoxin]	obviously improved	obviously improved	obviously improved	significantly lower
COc1cc([C@@H]2c3cc4c(cc3[C@@H](Sc3nc5ncccc5[nH]3)[C@H]3COC(=O)[C@H]23)OCO4)cc(OC)c1O [Compound 22, 4β-S-(1H-imidazo[4,5-B]pyridin-2)-4′-demethylepipodophyllotoxin]	obviously improved	obviously improved	obviously improved	–
COc1cc([C@@H]2c3cc4c(cc3[C@@H](Sc3nc(-c5ccncc5)cs3)[C@H]3COC(=O)[C@H]23)OCO4)cc(OC)c1O [Compound 28, 4β-S-(4-(4-pyridyl)thiazol-2)-4′-demethylepipodophyllotoxin]	obviously improved	obviously improved	obviously improved	–
COc1cc(C2c3cc4c(cc3C(Sc3nc5cc(F)ccc5o3)C3COC(=O)C23)OCO4)cc(OC)c1OC (stereo not drawn) [Compound 9, 4β-S-(5-Fluorobenzoxazol-2)-podophyllotoxin]	–	obviously improved	obviously improved	significantly lower
COc1cc(C2c3cc4c(cc3C(Sc3nc5ncccc5[nH]3)C3COC(=O)C23)OCO4)cc(OC)c1OC (stereo not drawn) [Compound 21, 4β-S-(1H-imidazo[4,5-B]pyridin-2)-podophyllotoxin]	obviously improved	obviously improved	obviously improved	–
COc1cc(C2c3cc4c(cc3C(Sc3nc5cc(F)ccc5s3)C3COC(=O)C23)OCO4)cc(OC)c1OC (stereo not drawn) [Compound 7, 4β-S-(5-fluorobenzothiazol-2)-podophyllotoxin]	obviously improved	obviously improved	obviously improved	–
COc1cc(C2c3cc4c(cc3C(Sc3nc5cc(C)ccc5o3)C3COC(=O)C23)OCO4)cc(OC)c1OC (stereo not drawn) [Compound 13, 4β-S-(5-methylbenzoxazol-2)-podophyllotoxin]	obviously improved	obviously improved	obviously improved	–
COc1cc([C@@H]2c3cc4c(cc3[C@@H](Sc3nc5cc(F)ccc5o3)[C@H]3COC(=O)[C@H]23)OCO4)cc(OC)c1O [Compound 10, 4β-S-(5-fluorobenzoxazol-2)-4′-demethylepipodophyllotoxin]	obviously improved	obviously improved	obviously improved	significantly lower
4β-S-(5-phenylbenzoxazol-2)-podophyllotoxin [Compound 11]	obviously improved	obviously improved	obviously improved	–
COc1cc(C2c3cc4c(cc3C(Sc3nnnn3-c3ccccc3)C3COC(=O)C23)OCO4)cc(OC)c1OC (stereo not drawn) [Compound 23, 4β-S-(l-phenyltetrazol-5)-podophyllotoxin]	obviously improved	obviously improved	obviously improved	–
COc1cc(C2c3cc4c(cc3C(Sc3cc(C(F)(F)F)ccn3)C3COC(=O)C23)OCO4)cc(OC)c1O (stereo not drawn) [Compound 2, 4-β-S-(4-trifluoromethylpyridin-2)-4′-demethylepipodophyllotoxin]	obviously improved	obviously improved	obviously improved	–
4β-S-(3-phenyl-1,3,4-thiadiazol-2(3H)thione potassium salt-5)-podophyllotoxin [Compound 25]	obviously improved	obviously improved	–	–
4β-S-(3-phenyl-1,3,4-thiadiazol-2(3H)thione potassium salt-5)-4′-demethylepipodophyllotoxin [Compound 26]	obviously improved	obviously improved	–	–
COc1cc([C@@H]2c3cc4c(cc3[C@@H](Sc3ccc(F)cc3)[C@H]3COC(=O)[C@H]23)OCO4)cc(OC)c1O [Compound 6, 4β-S-(4-fluorobenzene-1)-4′-demethylepipodophyllotoxin]	obviously improved	obviously improved	obviously improved	–
COc1cc([C@@H]2c3cc4c(cc3[C@@H](Sc3nnnn3-c3ccccc3)[C@H]3COC(=O)[C@H]23)OCO4)cc(OC)c1O [Compound 24, 4β-S-(1-phenyltetrazol-5)-4′-demethylepipodophyllotoxin]	obviously improved	obviously improved	obviously improved	–
COc1cc(C2c3cc4c(cc3C(Sc3nc5cc(OC(F)F)ccc5[nH]3)C3COC(=O)C23)OCO4)cc(OC)c1OC (stereo not drawn) [Compound 17, 4β-S-(5-difluoromethoxybenzimidazol-2)-podophyllotoxin]	obviously improved	obviously improved	obviously improved	–
COc1cc(C2c3cc4c(cc3C(Sc3ccc(F)cc3)C3COC(=O)C23)OCO4)cc(OC)c1OC (stereo not drawn) [Compound 5, 4β-S-(4-fluorobenzene-1)-podophyllotoxin]	obviously improved	obviously improved	obviously improved	–
4β-S-(6-chlorobenzoxazol-2)-podophyllotoxin [Compound 15]	obviously improved	obviously improved	obviously improved	–
COc1cc(C2c3cc4c(cc3C(Sc3nc5cc(C)ccc5o3)C3COC(=O)C23)OCO4)cc(OC)c1O (stereo not drawn) [Compound 14, 4β-S-(5-methylbenzoxazol-2)-4′-demethylepipodophyllotoxin]	obviously improved	obviously improved	obviously improved	–
COc1cc([C@@H]2c3cc4c(cc3[C@@H](Sc3ccc5ccccc5c3)[C@H]3COC(=O)[C@H]23)OCO4)cc(OC)c1O [Compound 20, 4β-S-(naphthalen-2)-4′-demethylepipodophyllotoxin]	obviously improved	obviously improved	obviously improved	–
4β-S-(5-phenylbenzoxazol-2)-4′-demethylepipodophyllotoxin [Compound 12]	obviously improved	obviously improved	obviously improved	–
4β-S-(6-chlorobenzoxazol-2)-4′-demethylepipodophyllotoxin [Compound 16]	obviously improved	obviously improved	obviously improved	–
COc1cc(C2c3cc4c(cc3C(Sc3nc5cc(OC(F)F)ccc5[nH]3)C3COC(=O)C23)OCO4)cc(OC)c1O (stereo not drawn) [Compound 18, 4β-S-(5-difluoromethoxybenzimidazol-2)-4′-demethylepipodophyllotoxin]	obviously improved	obviously improved	obviously improved	–
COc1cc(C2c3cc4c(cc3C(Sc3cc(C(F)(F)F)ccn3)C3COC(=O)C23)OCO4)cc(OC)c1OC (stereo not drawn) [Compound 1, 4-β-S-(4-Trifluoromethylpyridin-2)-Podophyllotoxin]	obviously improved	obviously improved	obviously improved	–
COc1cc(C2c3cc4c(cc3C(Sc3nccc(C(F)(F)F)n3)C3COC(=O)C23)OCO4)cc(OC)c1O (stereo not drawn) [Compound 4, 4-β-S-(4-trifluoromethylpyrimidin-2)-4′-demethylepipodophyllotoxin]	obviously improved	obviously improved	obviously improved	–
